Assay results: patent US10159726B2, “Peptides, combination of peptides and scaffolds for use in immunotherapeutic treatment of various cancers” (Immatics Biotechnologies GmbH, priority 2015, dated 2018)

System: HLA-A*24 molecules of primary tumors
Assay: Identification and relative LC-MS quantitation of HLA-A*24 tumor-associated peptides presented on tissue samples (XPRESIDENT presentation profiles)
Set-up: species or system human
Details: for ENTITIES: Table 9A: selected HLA-A*24-binding tumor-associated peptides, cancer entities on which the peptide was found presented; for Peptide Presentation on cancer entities: Table 9B: selected HLA-A*24 peptides, presentation on additional cancer entities

183 (PYLQDVPRI; listed as Homo sapiens) [compound 183]
ENTITIES: NSCLC, GB

184 (IYSVGAFENF; listed as Homo sapiens) [compound 184]
Peptide Presentation on cancer entities: NSCLC

186 (VFTTSSNIF; listed as Homo sapiens) [compound 186]
ENTITIES: NSCLC, GB

187 (AYAANVHYL; listed as Homo sapiens) [compound 187]
ENTITIES: NSCLC

192 (RYSTFSEIF; listed as Homo sapiens) [compound 192]
ENTITIES: HCC, NSCLC, GC

193 (LYLENNAQTQF; listed as Homo sapiens) [compound 193]
Peptide Presentation on cancer entities: NSCLC

194 (VYQSLSNSL; listed as Homo sapiens) [compound 194]
ENTITIES: NSCLC

195 (AYIKGGWIL; listed as Homo sapiens) [compound 195]
ENTITIES: RCC, HCC, NSCLC, GC

196 (GYIRGSWQF; listed as Homo sapiens) [compound 196]
ENTITIES: NSCLC, GC

197 (IFTDIFHYL; listed as Homo sapiens) [compound 197]
ENTITIES: HCC, NSCLC, GC, GB

199 (SYLNHLNNL; listed as Homo sapiens) [compound 199]
ENTITIES: NSCLC

200 (VFIHHLPQF; listed as Homo sapiens) [compound 200]
Peptide Presentation on cancer entities: HCC

201 (GYNPNRVFF; listed as Homo sapiens) [compound 201]
ENTITIES: GB, NSCLC

203 (VYNVEVKNAEF; listed as Homo sapiens) [compound 203]
Peptide Presentation on cancer entities: NSCLC

205 (VYPVVLNQI; listed as Homo sapiens) [compound 205]
Peptide Presentation on cancer entities: NSCLC

206 (NYLDVATFL; listed as Homo sapiens) [compound 206]
ENTITIES: NSCLC, GC, GB, PCA, HCC

207 (LYSDAFKFIVF; listed as Homo sapiens) [compound 207]
ENTITIES: NSCLC

208 (TYLEKIDGF; listed as Homo sapiens) [compound 208]
Peptide Presentation on cancer entities: NSCLC

209 (AFIETPIPLF; listed as Homo sapiens) [compound 209]
ENTITIES: NSCLC

211 (VFKSEGAYF; listed as Homo sapiens) [compound 211]
Peptide Presentation on cancer entities: NSCLC

215 (SYVASFFLL; listed as Homo sapiens) [compound 215]
ENTITIES: GC, NSCLC

216 (FYVNVKEQF; listed as Homo sapiens) [compound 216]
Peptide Presentation on cancer entities: NSCLC

217 (IYISNSIYF; listed as Homo sapiens) [compound 217]
ENTITIES: NSCLC, GC

221 (KYIGNLDLL; listed as Homo sapiens) [compound 221]
ENTITIES: NSCLC, GB

222 (HYSTLVHMF; listed as Homo sapiens) [compound 222]
Peptide Presentation on cancer entities: NSCLC

223 (TFITQSPLL; listed as Homo sapiens) [compound 223]
ENTITIES: NSCLC

224 (PYFFANQEF; listed as Homo sapiens) [compound 224]
Peptide Presentation on cancer entities: HCC

225 (TYTNTLERL; listed as Homo sapiens) [compound 225]
ENTITIES: NSCLC

226 (MYLKLVQLF; listed as Homo sapiens) [compound 226]
ENTITIES: HCC, GC

227 (IYRFITERF; listed as Homo sapiens) [compound 227]
Peptide Presentation on cancer entities: NSCLC

228 (IYQYVADNF; listed as Homo sapiens) [compound 228]
ENTITIES: NSCLC

229 (IYQFVADSF; listed as Homo sapiens) [compound 229]
ENTITIES: NSCLC

230 (TYGMVMVTF; listed as Homo sapiens) [compound 230]
Peptide Presentation on cancer entities: NSCLC

231 (AFADVSVKF; listed as Homo sapiens) [compound 231]
Peptide Presentation on cancer entities: NSCLC

232 (YYLSDSPLL; listed as Homo sapiens) [compound 232]
ENTITIES: NSCLC, GC

233 (QYLTAAALHNL; listed as Homo sapiens) [compound 233]
Peptide Presentation on cancer entities: NSCLC

235 (VYKDSIYYI; listed as Homo sapiens) [compound 235]
ENTITIES: GB, PCA, HCC, NSCLC, GC

236 (VYLPKIPSW; listed as Homo sapiens) [compound 236]
ENTITIES: HCC, NSCLC

238 (SYLEKVRQL; listed as Homo sapiens) [compound 238]
ENTITIES: NSCLC

240 (YYFFVQEKI; listed as Homo sapiens) [compound 240]
ENTITIES: HCC, NSCLC

241 (SYVKVLHHL; listed as Homo sapiens) [compound 241]
Peptide Presentation on cancer entities: HCC

242 (VYGEPRELL; listed as Homo sapiens) [compound 242]
Peptide Presentation on cancer entities: HCC

243 (SYLELANTL; listed as Homo sapiens) [compound 243]
ENTITIES: PCA, NSCLC

246 (KYLSVQLTL; listed as Homo sapiens) [compound 246]
Peptide Presentation on cancer entities: NSCLC

247 (SFTKTSPNF; listed as Homo sapiens) [compound 247]
Peptide Presentation on cancer entities: HCC

248 (AFPTFSVQL; listed as Homo sapiens) [compound 248]
ENTITIES: NSCLC

249 (RYHPTTCTI; listed as Homo sapiens) [compound 249]
ENTITIES: NSCLC

250 (KYPDIASPTF; listed as Homo sapiens) [compound 250]
ENTITIES: HCC

252 (AFGQETNVPLNNF; listed as Homo sapiens) [compound 252]
ENTITIES: HCC

254 (KYLESSATF; listed as Homo sapiens) [compound 254]
ENTITIES: NSCLC

255 (VYQKIILKF; listed as Homo sapiens) [compound 255]
ENTITIES: HCC

256 (VFGKSAYLF; listed as Homo sapiens) [compound 256]
Peptide Presentation on cancer entities: NSCLC

257 (IFIDNSTQPLHF; listed as Homo sapiens) [compound 257]
ENTITIES: HCC

259 (YFIKSPPSQLF; listed as Homo sapiens) [compound 259]
ENTITIES: NSCLC, GC

260 (VYMNVMTRL; listed as Homo sapiens) [compound 260]
ENTITIES: NSCLC

263 (RYILENHDF; listed as Homo sapiens) [compound 263]
Peptide Presentation on cancer entities: HCC

264 (LYTETRLQF; listed as Homo sapiens) [compound 264]
ENTITIES: NSCLC

265 (SYLNEAFSF; listed as Homo sapiens) [compound 265]
ENTITIES: PCA

266 (KYTDWTEFL; listed as Homo sapiens) [compound 266]
ENTITIES: HCC, NSCLC, GC, GB, PCA

267 (SFLNIEKTEILF; listed as Homo sapiens) [compound 267]
Peptide Presentation on cancer entities: HCC

269 (QYPYLQAFF; listed as Homo sapiens) [compound 269]
ENTITIES: NSCLC

270 (YYSQESKVLYL; listed as Homo sapiens) [compound 270]
Peptide Presentation on cancer entities: HCC

271 (RFLMKSYSF; listed as Homo sapiens) [compound 271]
ENTITIES: HCC

272 (RYVFPLPYL; listed as Homo sapiens) [compound 272]
Peptide Presentation on cancer entities: NSCLC

273 (IYGEKLQFIF; listed as Homo sapiens) [compound 273]
Peptide Presentation on cancer entities: NSCLC

274 (KQLDIANYELF; listed as Homo sapiens) [compound 274]
ENTITIES: NSCLC, GB, HCC

275 (KYGTLDVTF; listed as Homo sapiens) [compound 275]
ENTITIES: NSCLC

276 (QYLDVLHAL; listed as Homo sapiens) [compound 276]
ENTITIES: GC, RCC

278 (KYVNLVMYF; listed as Homo sapiens) [compound 278]
Peptide Presentation on cancer entities: NSCLC

279 (VWLPASVLF; listed as Homo sapiens) [compound 279]
Peptide Presentation on cancer entities: NSCLC

280 (TYNPNLQDKL; listed as Homo sapiens) [compound 280]
ENTITIES: HCC

281 (NYSPGLVSLIL; listed as Homo sapiens) [compound 281]
ENTITIES: NSCLC

282 (NYLVDPVTI; listed as Homo sapiens) [compound 282]
Peptide Presentation on cancer entities: NSCLC

283 (EYQEIFQQL; listed as Homo sapiens) [compound 283]
Peptide Presentation on cancer entities: NSCLC

284 (DYLKDPVTI; listed as Homo sapiens) [compound 284]
ENTITIES: NSCLC

285: peptide found in TRPC4 (gene looked up) (VYVGDALLHAI; listed as Homo sapiens) [compound 285]
ENTITIES: PCA

286 (SYGTILSHI; listed as Homo sapiens) [compound 286]
ENTITIES: NSCLC

288 (VYPDTVALTF; listed as Homo sapiens) [compound 288]
ENTITIES: NSCLC, GC

290 (KYGDFKLLEF; listed as Homo sapiens) [compound 290]
ENTITIES: PCA, GB

291 (YYLGSGRETF; listed as Homo sapiens) [compound 291]
Peptide Presentation on cancer entities: NSCLC, GB, PCA, HCC

292 (FYPQIINTF; listed as Homo sapiens) [compound 292]
Peptide Presentation on cancer entities: NSCLC

293 (VYPHFSTTNLI; listed as Homo sapiens) [compound 293]
Peptide Presentation on cancer entities: HCC

294 (RFPVQGTVTF; listed as Homo sapiens) [compound 294]
Peptide Presentation on cancer entities: PCA

295 (SYLVIHERI; listed as Homo sapiens) [compound 295]
ENTITIES: NSCLC, GC

296 (SYQVIFQHF; listed as Homo sapiens) [compound 296]
ENTITIES: NSCLC, GC
